Values from PubChem BioAssay AID1508597 (Cure First, 2020)

Assay: 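Survival screen with siRNA in ovarian cancer cells derived from patients, with or without rucaparib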 (primary screen)
System: human ovarian carcinoma lines grown from tumours: OCI-P5x (papillary serous) and OCI-C5x (clear cell)
Knock-down reagent: siRNA pool against human genes, 1.25 pmol siRNA per well
Duration: 72 h or 96 h, depending on the cell culture
Conditions: rucaparib 20 µM (about IC30) or vehicle, present until read-out
Rucaparib or vehicle: Vehicle
Cell line: OCI-P5x (serous)
Measurement: 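Luminescent ATP-based viability assay read 72 or 96 h after transfection, depending on culture, given as normalised percent viability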
Direction: viability, normalised: higher = more viable cells remaining
Active means: 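Active when normalised viability falls below 80 percent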
Calls: active = viability under 80%; inactive = viability 80% or more
This is a random part of the about 2,100 reagents, under one of the conditions tested. 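Calls flag viability under 80% in either arm, not effects specific to rucaparib; the reference for percent is not stated.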 Some reagents were tested in more than one well and are listed for each. Not given: the 100% reference.

With PCDHB9, technical replicate 1, the entry reads viability, normalised (%) = 70.7; active.
With PCDHB9, technical replicate 2 the deposit lists viability, normalised (%) = 80.8; inactive.
For PCDHB9, technical replicate 3 the deposit lists viability, normalised (%) = 92.2; inactive.
NECAB3, technical replicate 1 scored viability, normalised (%) = 98.9; inactive.
With NECAB3, technical replicate 2 the deposit lists viability, normalised (%) = 98.7; inactive.
For NECAB3, technical replicate 3 the deposit lists viability, normalised (%) = 92.2; inactive.
JADE1, technical replicate 1 scored viability, normalised (%) = 61.8; active.
JADE1, technical replicate 2 gave viability, normalised (%) = 59.4; active.
JADE1, technical replicate 3 showed viability, normalised (%) = 85; inactive.
With AUNIP, technical replicate 1 the deposit lists viability, normalised (%) = 71.3; active.
AUNIP, technical replicate 2 showed viability, normalised (%) = 39.8; active.
For AUNIP, technical replicate 3, the entry reads viability, normalised (%) = 64.1; active.
KDM1B, technical replicate 1 gave viability, normalised (%) = 69.6; active.
KDM1B, technical replicate 2 gave viability, normalised (%) = 72.3; active.
With KDM1B, technical replicate 3 the deposit lists viability, normalised (%) = 62; active.
PARP8, technical replicate 1 gave viability, normalised (%) = 48.1; active.
For PARP8, technical replicate 2 the deposit lists viability, normalised (%) = 38.3; active.
PARP8, technical replicate 3 showed viability, normalised (%) = 62.1; active.
With RBBP5, technical replicate 1 the deposit lists viability, normalised (%) = 70.2; active.
RBBP5, technical replicate 2 gave viability, normalised (%) = 80.9; inactive.
RBBP5, technical replicate 3 gave viability, normalised (%) = 103; inactive.
For SGK2, technical replicate 1 the deposit lists viability, normalised (%) = 125; inactive.
With SGK2, technical replicate 2, the values are viability, normalised (%) = 102; inactive.
SGK2, technical replicate 3 gave viability, normalised (%) = 86.9; inactive.

Look-ups from above.
SGK2, technical replicate 3, call → inactive
Entry of NECAB3, technical replicate 2 under “call”: inactive
Entry for JADE1, technical replicate 3 under “call”: inactive

Next records follow.
PRPS1, technical replicate 1 showed viability, normalised (%) = 86.9; inactive.
PRPS1, technical replicate 2 gave viability, normalised (%) = 96.6; inactive.
PRPS1, technical replicate 3 gave viability, normalised (%) = 64.1; active.
With EZH2, technical replicate 1, the entry reads viability, normalised (%) = 68.6; active.
EZH2, technical replicate 2 scored viability, normalised (%) = 84.6; inactive.
EZH2, technical replicate 3 gave viability, normalised (%) = 78.8; active.
With TDRD3, technical replicate 1, the values are viability, normalised (%) = 46.2; active.
TDRD3, technical replicate 2 showed viability, normalised (%) = 62.2; active.
TDRD3, technical replicate 3 gave viability, normalised (%) = 42.1; active.
For BUB1B, technical replicate 1, the entry reads viability, normalised (%) = 83.5; inactive.
BUB1B, technical replicate 1 gave viability, normalised (%) = 37.6; active.
BUB1B, technical replicate 1 showed viability, normalised (%) = 102; inactive.
BUB1B, technical replicate 2 gave viability, normalised (%) = 42.7; active.
BUB1B, technical replicate 2 showed viability, normalised (%) = 88.6; inactive.
For BUB1B, technical replicate 2 the deposit lists viability, normalised (%) = 126; inactive.
BUB1B, technical replicate 3 showed viability, normalised (%) = 131; inactive.
With BUB1B, technical replicate 3, the values are viability, normalised (%) = 45.8; active.
With BUB1B, technical replicate 3 the deposit lists viability, normalised (%) = 81.8; inactive.
